Reference: publication PMC8632972
Results are given in words; binding and its absence hold for the method and conditions named. Binding seen in cells or lysates may run through a third protein. Binding calls can cover weak binding; strength is not graded here. Tags and fused reporters may be left off the sequences shown.

Columns and labels:
[1] = target: WFS1 tagged with N-terminal segment of YFP (nYFP) (not stated (cDNA from INS1 cells)); test: split reporter; BiFC of WFS1 and vesicular cargo proteins in INS1 cells
[2] = target: HA-tagged WFS1 (not stated (cDNA from INS1 cells)); test: proximity ligation; HEK-293T cells co-transfected with HA-tagged Wfs1 and cargo protein-cYFP or Myc-tagged COPII protein plasmids for 48 h, fixed, Duolink In Situ PLA with anti-rabbit PLUS and anti-mouse MINUS probes; puncta per cell counted
[3] = target: WFS1 tagged with N-terminal segment of YFP (nYFP) (not stated (cDNA from INS1 cells)); test: split reporter; HEK-293T cells transfected with 200 ng nYFP- and 200 ng cYFP-tagged constructs, 48 h, then 30 °C for 6 h; fluorescence by flow cytometry or confocal imaging of live cells
[4] = target: HA-tagged WFS1 (not stated (cDNA from INS1 cells)); test: co-IP; proteins transiently expressed in HEK-293T cells; lysis in buffer A (20 mM Tris-HCl pH 7.5, 100 mM KCl, 5 mM MgCl2, 0.5% NP-40); anti-HA antibody on protein A/G magnetic beads overnight at 4 °C; immunoblot

| binding [1] | binding [2] | binding [3] | binding [4] | Binder |
| --- | --- | --- | --- | --- |
| binds | binds | binds | binds | SCG5 tagged with cYFP (protein, UniProt P27682 25-210) YSPRTPDRVSETDIQRLLHGVMEQLGIARPRVEYPAHQAMNLVGPQSIEGGAHEGLQHLGPFGNIPNIVAELTGDNIPKDFSEDQGYPDPPNPCPLGKTADDGCLENAPDTAEFSREFQLDQHLFDPEHDYPGLGKWNKKLLYEKMKGGQRRKRRSVNPYLQGKRLDNVVAKKSVPHFSEEEKEPE |
| binds | binds | binds | binds | proinsulin tagged with C-terminal segment of YFP (cYFP) (protein, UniProt P01322 25-110) FVKQHLCGPHLVEALYLVCGERGFFYTPKSRREVEDPQVPQLELGGGPEAGDLQTLALEVARQKRGIVDQCCTSICSLYQLENYCN |
